This test has as its target NSP5-BioID2. Kind of test: proximity labelling.

No constants are given. Whether binding was seen depends on the method and setting. In cells and extracts the contact can be indirect. Here binding means that the protein was enriched with, or labelled near, the bait; the list need not be complete.

B1: VP1 (rotavirus SA11, from infection) (enzyme, UniProt O37061 1-1088)
chain: MGKYNLILSEYLSFIYNSQSAVQIPIYYSSNSELENRCIEFHSKCLENSKNGLSLRKLFVEYNDVIENATLLSILSYSYDKYNAVERKLVKYAKGKPLEADLTVNELDYENNKMTSELFPTAEEYTDSLMDPAILTSLSSNLNAVMFWLEKHENDVAEKLKVYKRRLDLFTIVASTINKYGVPRHNAKYRYEYDVMKDKPYYLVTWANSSIEMLMSVFSHDDYLIAKELIVLSYSNRSTLAKLVSSPMSILVALVDINGTFITNEELELEFSNKYVRAIVPDQTFDELNQMLDNMRKAGLVDIPKMIQDWLVDRSIEKFPLMAKIYSWSFHVGFRKQKMLDAALDQLKTEYTENVDDEMYREYTMLIRDEVVKMLEEPVKHDDHLLRDSELAGLLSMSSASNGESRQLKFGRKTIFSTKKNMHVMDDMANERYTPGIIPPVNVDKPIPLGRRDVPGRRTRIIFILPYEYFIAQHAVVEKMLIYAKHTREYAEFYSQSNQLLSYGDVTRFLSNNTMVLYTDVSQWDSSQHNTQPFRKGIIMGLDILANMTNDAKVLQTLNLYKQTQINLMDSYVQIPDGNVIKKIQYGAVASGEKQTKAANSIANLALIKTVLSRISNKHSFATKIIRVDGDDNYAVLQFNTEVTKQMIQDVSNDVRETYARMNAKVKALVSTVGIEIAKRYIAGGKIFFRAGINLLNNEKRGQSTQWDQAAILYSNYIVNRLRGFETDREFILTKIMQMTSVAITGSLRLFPSERVLTTNSTFKVFDSEDFIIEYGTTVDEVYIQRAFMSLSSQKSGIADEIAASSTFKNYVTRLSEQLLFSKNNIVSRGIALTEKAKLNSYAPISLEKRRAQISALLTMLQKPVTFKSSKITINDILRDIKPFFTVSDAHLPIQYQKFMPTLPDNVQYIIQCIGSRTYQIEDDGSKSAISRLISKYSVYKPSIEELYKVISLHENEIQLYLISLGIPKIDADTYVGSKIYSRDKYRILESYVYNLLSINYGCYQLFDFNSPDLEKLIRIPFKGKIPAVTFILHLYAKLEVINYAIKNGSWISLFCNYPKSEMIKLWKKMWNITSLRSPYTNANFFQE
In the case of B1, the binding entry was “binds”.

Source of the values: doi:10.1101/2022.12.13.520363.
